Laboratory results as given in article doi:10.1101/2023.12.22.573140.

Molecular target: TGM6 domain 3 (TGM6-D3) (Heligmosomoides polygyrus)
Assay: ITC

B1: BMP type II receptor (BMPRII) extracellular domain (receptor, UniProt Q13873 27-150)
chain: SQNQERLCAFKDPYQQDLGIGESRISHENGTILCSKGSTCYGLWEKSKGDINLVKQGCWSHIGDPQECHYEECVVTTTPPSIQNGTYRFCCCSTDLCNVNFTENFPPPDTTPLSPPHSFNRDET
  binding: no binding

Results are given in words; binding and its absence hold for the method and conditions named.
